Measured values reported in patent publication US5932693A, “Antithrombotic peptides” (Washington University, priority 1997, dated 1999).
Several values for one entry are separate records, joined by “and”; a condition that tells them apart may be missing. Equal entries are not always repeated. Entries after “also recorded” stand apart in the source; their conditions may differ. Part of at least one peptide drawing is inferred or uncertain, most often the ends. Some entries repeat one wording, which the source may state once for all of them. Residues, ends and D or L forms follow the SMILES beside them.

What was measured:
Assay type in all cases: cell-based, human
[1] = test system: adhesion of platelets to the 45 kDa gelatin-binding domain of FN; assay: Inhibition by soluble synthetic peptides of divalent cation-independent platelet adhesion to 45 kDa substrates; settings: for ED50: Table I, divalent cation-independent adhesion of platelets to 45 kDa; for IC50: divalent cation-independent platelet adhesion to 45 kDa, read-out: concentration at which half-maximal inhibition occurred
[2] = test system: platelet adhesion to FN; assay: Platelet adhesion to fibronectin substrate after preincubation with peptides; settings: for effect on platelet adhesion to intact FN: FIG. 7B
[3] = test system: platelet adhesion to type I collagen; assay: Platelet adhesion to type I collagen substrate after preincubation with peptides; settings: 300 μM peptide, Mg+2
[4] = test system: platelet adhesion to fibrinogen; assay: Platelet adhesion to fibrinogen substrate after preincubation with peptides; settings: 300 μM peptide, Ca+2
[5] = test system: platelet adhesion to FN312-327 -BSA conjugates; assay: Platelet adhesion to FN312-327 cross-linked to BSA; settings: platelets preincubated with 300 μM soluble peptide, 2 mM EDTA, FIG. 8
[6] = soluble peptide, concentration series, FIG. 7A

| Structure (SMILES) | ED50 [1] [µM] | IC50 [1] | effect on divalent cation-independent platelet adhesion to 45 kDa ([1]; 300 μM peptide, EDTA, FIG. 7B) | effect on divalent cation-independent platelet adhesion to 45 kDa [1, 6] | effect on divalent cation-independent platelet adhesion to 45 kDa ([1]; soluble peptide, concentration series, FIG. 7A, listed as FN312-333) | effect on platelet adhesion to intact FN ([2]; 300 μM peptide) | effect on divalent cation-dependent platelet adhesion to collagen [3] | effect on divalent cation-dependent platelet adhesion to fibrinogen [4] | reduction of platelet adhesion to FN ([2]; 300 μM peptide, in the presence of Ca+2) | inhibition of total platelet adhesion to FN ([2]; in the presence of Ca+2) | effect on platelet adhesion to FN312-327 -BSA conjugate [5] | effect on platelet adhesion to 45 kDa ([1]; concentrations up to 2 mM, absence of divalent cations) |
| --- | --- | --- | --- | --- | --- | --- | --- | --- | --- | --- | --- | --- |
| CC(C)[C@H](NC(=O)[C@H](C)NC(=O)[C@@H](N)[C@@H](C)O)C(=O)N[C@H](C(=O)N[C@@H](CCC(N)=O)C(=O)N[C@H](C(=O)N[C@@H](Cc1ccc(O)cc1)C(=O)NCC(=O)NCC(=O)N[C@@H](CC(N)=O)C(=O)N[C@@H](CO)C(=O)N[C@@H](CC(N)=O)C(=O)O)[C@@H](C)O)[C@@H](C)O [FN312-323, TAVTQTYGGNSN] (H-TAVTQTYGGNSN-OH) | 712 | ~712 µM |  |  |  |  |  |  |  |  |  |  |
| CC(C)C[C@H](NC(=O)[C@@H](NC(=O)[C@H](CO)NC(=O)[C@@H]1CCCN1C(=O)[C@H](CCC(=O)O)NC(=O)CNC(=O)[C@H](CC(N)=O)NC(=O)[C@H](CO)NC(=O)[C@H](CC(N)=O)NC(=O)CNC(=O)CNC(=O)[C@H](Cc1ccc(O)cc1)NC(=O)[C@@H](NC(=O)[C@@H](N)CCC(N)=O)[C@@H](C)O)C(C)C)C(=O)N1CCC[C@H]1C(=O)N[C@@H](Cc1ccccc1)C(=O)N[C@H](C(=O)N[C@@H](Cc1ccc(O)cc1)C(=O)O)[C@@H](C)O [FN316-333, QTYGGNSNGEPSVLPFTY] (H-QTYGGNSNGEPSVLPFTY-OH) | > 2000 |  | neither FN316-333 nor FN342-353 inhibited platelet adhesion to FN or to 45 kDa | do not; also recorded: Neither FN316-333 nor FN342-353 had any effect; also recorded: no effect | Neither the peptide, FN312-333 | neither FN316-333 nor FN342-353 inhibited platelet adhesion to FN or to 45 kDa | none of the peptides had any significant effect | none of the peptides had any significant effect |  |  |  |  |
| CC(C)C[C@H](NC(=O)[C@H](Cc1c[nH]cn1)NC(=O)CNC(=O)[C@H](CC(=O)O)NC(=O)[C@H](CCC(N)=O)NC(=O)[C@H](CCCNC(=N)N)NC(=O)CNC(=O)[C@H](CCC(=O)O)NC(=O)[C@@H](NC(=O)[C@@H](N)[C@@H](C)O)[C@@H](C)O)C(=O)N[C@@H](Cc1c[nH]c2ccccc12)C(=O)N[C@@H](CO)C(=O)O [FN342-353] (H-TTEGRQDGHLWS-OH) |  |  | neither FN316-333 nor FN342-353 inhibited platelet adhesion to FN or to 45 kDa | do not; also recorded: Neither FN316-333 nor FN342-353 had any effect |  | neither FN316-333 nor FN342-353 inhibited platelet adhesion to FN or to 45 kDa | none of the peptides had any significant effect | none of the peptides had any significant effect |  |  |  |  |
| CC(C)[C@H](NC(=O)[C@H](C)NC(=O)[C@@H](N)[C@@H](C)O)C(=O)N[C@H](C(=O)N[C@@H](CCC(N)=O)C(=O)N[C@H](C(=O)N[C@@H](Cc1ccc(O)cc1)C(=O)NCC(=O)NCC(=O)N[C@@H](CC(N)=O)C(=O)N[C@@H](CO)C(=O)N[C@@H](CC(N)=O)C(=O)NCC(=O)N[C@@H](CCC(=O)O)C(=O)N1CCC[C@H]1C(=O)O)[C@@H](C)O)[C@@H](C)O [FN312-326, TAVTQTYGGNSNGEP] (H-TAVTQTYGGNSNGEP-OH) | 68 | ~68 µM and 68 µM | markedly reduced | inhibits platelet adhesion to the 45 kDa fragment in a concentration-dependent manner |  | markedly reduced | none of the peptides had any significant effect; also recorded: Neither the integrin-mediated, Mg^+2 -dependent adhesion of plate-lets to collagen nor the Ca^+2 -dependent adhesion of platelets to fibrinogen is affected | none of the peptides had any significant effect; also recorded: Neither the integrin-mediated, Mg^+2 -dependent adhesion of plate-lets to collagen nor the Ca^+2 -dependent adhesion of platelets to fibrinogen is affected | approximately 50% | only about half | inhibited |  |
| CC(C)[C@H](NC(=O)[C@H](C)NC(=O)[C@@H](N)[C@@H](C)O)C(=O)N[C@H](C(=O)N[C@@H](CCC(N)=O)C(=O)N[C@H](C(=O)N[C@@H](Cc1ccc(O)cc1)C(=O)O)[C@@H](C)O)[C@@H](C)O [FN312-318, TAVTQTY] (H-TAVTQTY-OH) | > 2000 |  |  | nor the peptide, TAVTQTY |  |  |  |  |  |  |  | little effect |
